Test results as given in paper PMC7707522.
No constants are given. Whether binding was seen depends on the method and setting. Binding seen in cells or lysates may run through a third protein. Some entries that bind do so weakly or less than the wild type.

Protein sequences, listed by entry. Tags and fused reporters are not part of them.
UniProt P03146: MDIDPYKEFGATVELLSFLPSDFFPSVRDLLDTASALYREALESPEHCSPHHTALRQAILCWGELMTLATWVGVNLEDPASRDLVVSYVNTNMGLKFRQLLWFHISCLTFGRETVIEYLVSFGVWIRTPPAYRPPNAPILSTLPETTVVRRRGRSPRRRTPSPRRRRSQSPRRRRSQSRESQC
UniProt Q92841: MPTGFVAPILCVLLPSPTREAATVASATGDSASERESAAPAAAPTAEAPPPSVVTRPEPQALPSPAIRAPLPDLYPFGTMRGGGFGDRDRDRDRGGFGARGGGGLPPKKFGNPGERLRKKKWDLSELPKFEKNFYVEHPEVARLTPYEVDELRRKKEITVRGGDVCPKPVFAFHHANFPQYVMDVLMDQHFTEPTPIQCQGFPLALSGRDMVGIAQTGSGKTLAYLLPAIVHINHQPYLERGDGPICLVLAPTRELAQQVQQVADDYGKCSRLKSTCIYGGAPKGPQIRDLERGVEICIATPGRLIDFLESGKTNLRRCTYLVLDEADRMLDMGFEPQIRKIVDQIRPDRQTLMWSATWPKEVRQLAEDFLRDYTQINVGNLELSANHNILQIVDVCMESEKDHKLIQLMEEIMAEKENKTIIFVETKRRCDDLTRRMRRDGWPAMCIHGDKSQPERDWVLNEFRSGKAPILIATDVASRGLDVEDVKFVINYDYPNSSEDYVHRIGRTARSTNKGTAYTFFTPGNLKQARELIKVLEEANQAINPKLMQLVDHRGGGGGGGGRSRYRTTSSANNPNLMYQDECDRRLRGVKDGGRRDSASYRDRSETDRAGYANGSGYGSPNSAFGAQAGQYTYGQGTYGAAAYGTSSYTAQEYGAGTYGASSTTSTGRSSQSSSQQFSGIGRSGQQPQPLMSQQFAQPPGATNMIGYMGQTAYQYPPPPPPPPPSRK
UniProt O75190: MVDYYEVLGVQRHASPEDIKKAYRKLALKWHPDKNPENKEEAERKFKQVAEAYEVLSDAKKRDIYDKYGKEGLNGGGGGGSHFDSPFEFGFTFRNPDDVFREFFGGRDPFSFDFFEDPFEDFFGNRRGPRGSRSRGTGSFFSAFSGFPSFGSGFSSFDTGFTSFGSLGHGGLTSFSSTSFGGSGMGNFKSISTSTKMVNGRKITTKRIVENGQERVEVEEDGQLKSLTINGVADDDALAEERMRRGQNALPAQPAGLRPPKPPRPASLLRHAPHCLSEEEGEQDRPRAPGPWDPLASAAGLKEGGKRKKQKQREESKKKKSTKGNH
UniProt P09874: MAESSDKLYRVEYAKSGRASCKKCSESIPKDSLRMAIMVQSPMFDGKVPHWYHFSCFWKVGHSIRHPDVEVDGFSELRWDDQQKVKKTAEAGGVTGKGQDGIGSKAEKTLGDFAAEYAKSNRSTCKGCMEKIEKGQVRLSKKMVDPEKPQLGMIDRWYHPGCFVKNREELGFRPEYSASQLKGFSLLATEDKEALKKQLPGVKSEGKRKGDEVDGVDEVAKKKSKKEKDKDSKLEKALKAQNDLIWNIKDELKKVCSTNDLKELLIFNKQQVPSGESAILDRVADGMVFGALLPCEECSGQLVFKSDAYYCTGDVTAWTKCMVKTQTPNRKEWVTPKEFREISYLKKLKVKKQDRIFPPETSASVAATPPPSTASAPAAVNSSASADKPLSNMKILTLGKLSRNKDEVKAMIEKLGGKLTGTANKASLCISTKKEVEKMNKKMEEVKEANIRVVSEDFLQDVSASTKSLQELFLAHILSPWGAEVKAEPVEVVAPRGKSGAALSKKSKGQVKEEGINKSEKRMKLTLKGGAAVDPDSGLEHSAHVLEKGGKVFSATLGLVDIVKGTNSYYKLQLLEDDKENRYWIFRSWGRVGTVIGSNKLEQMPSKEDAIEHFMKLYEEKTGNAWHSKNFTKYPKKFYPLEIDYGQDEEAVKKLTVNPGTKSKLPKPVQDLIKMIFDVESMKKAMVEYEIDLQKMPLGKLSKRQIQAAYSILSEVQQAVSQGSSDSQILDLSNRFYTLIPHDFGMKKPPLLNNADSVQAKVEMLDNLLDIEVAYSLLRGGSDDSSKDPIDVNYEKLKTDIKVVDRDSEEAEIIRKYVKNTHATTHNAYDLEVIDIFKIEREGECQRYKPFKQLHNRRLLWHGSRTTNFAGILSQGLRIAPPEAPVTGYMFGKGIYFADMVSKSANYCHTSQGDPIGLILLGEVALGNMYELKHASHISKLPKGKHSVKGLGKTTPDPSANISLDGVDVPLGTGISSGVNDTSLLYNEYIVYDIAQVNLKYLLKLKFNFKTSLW
UniProt P38159: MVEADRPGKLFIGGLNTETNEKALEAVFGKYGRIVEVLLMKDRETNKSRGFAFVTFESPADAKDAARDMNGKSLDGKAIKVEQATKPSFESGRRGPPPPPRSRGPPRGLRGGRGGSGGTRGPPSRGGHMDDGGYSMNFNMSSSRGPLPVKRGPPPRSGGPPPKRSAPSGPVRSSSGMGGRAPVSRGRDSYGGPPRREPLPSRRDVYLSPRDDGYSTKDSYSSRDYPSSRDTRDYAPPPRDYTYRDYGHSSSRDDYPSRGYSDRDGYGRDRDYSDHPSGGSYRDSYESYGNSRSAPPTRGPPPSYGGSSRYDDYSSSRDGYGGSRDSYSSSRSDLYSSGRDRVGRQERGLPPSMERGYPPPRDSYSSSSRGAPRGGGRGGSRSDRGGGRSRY

B1: SRSF2 (protein, UniProt Q01130 1-221)
chain: MSYGRPPPDVEGMTSLKVDNLTYRTSPDTLRRVFEKYGRVGDVYIPRDRYTKESRGFAFVRFHDKRDAEDAMDAMDGAVLDGRELRVQMARYGRPPDSHHSRRGPPPRRYGGGGYGRRSRSPRRRRRSRSRSRSRSRSRSRSRYSRSKSRSRTRSRSRSTSKSRSARRSKSKSSSVSRSRSRSRSRSRSRSPPPVSKRESKSRSRSKSPPKSPEEEGAVSS
B2: TRA2B (protein, UniProt P62995 1-288)
chain: MSDSGEQNYGERESRSASRSGSAHGSGKSARHTPARSRSKEDSRRSRSKSRSRSESRSRSRRSSRRHYTRSRSRSRSHRRSRSRSYSRDYRRRHSHSHSPMSTRRRHVGNRANPDPNCCLGVFGLSLYTTERDLREVFSKYGPIADVSIVYDQQSRRSRGFAFVYFENVDDAKEAKERANGMELDGRRIRVDFSITKRPHTPTPGIYMGRPTYGSSRRRDYYDRGYDRGYDDRDYYSRSYRGGGGGGGGWRAAQDRDQIYRRRSPSPYYSRGGYRSRSRSRSYSPRRY

These molecules were tested against HBV core protein (HBc) fused at its N-terminus to a streptavidin (ST)-binding peptide (Hepatitis B virus) (UniProt P03146) (assay: pull-down; Strep-Tactin purification of ST-HBc from Benzonase-treated nuclear extracts of dHepaRG-TR-ST-HBc cells; eluted proteins detected by western blot).

Molecule | binding
DDX17 (from UniProt Q92841 1-729) | binds
DNAJB6 (from UniProt O75190 1-326) | binds
PARP1 (from UniProt P09874 1-1014) | binds
RBMX (from UniProt P38159 1-391) | binds
B1 | binds
B2 | binds
